Laboratory results taken from article PMC9120032.
No constants are given. Whether binding was seen depends on the method and setting. Binding seen in cells or lysates may run through a third protein. Some entries that bind do so weakly or less than the wild type. Sequences can lack the tags named with a protein.

Chains of the proteins cited; added tags and fusions are not shown. Lines headed by an entry give the natural chain unless they say otherwise; changes in a name come on top.
UniProt P0DTC6: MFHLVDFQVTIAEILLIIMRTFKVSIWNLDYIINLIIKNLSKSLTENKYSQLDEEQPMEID
UniProt P42224: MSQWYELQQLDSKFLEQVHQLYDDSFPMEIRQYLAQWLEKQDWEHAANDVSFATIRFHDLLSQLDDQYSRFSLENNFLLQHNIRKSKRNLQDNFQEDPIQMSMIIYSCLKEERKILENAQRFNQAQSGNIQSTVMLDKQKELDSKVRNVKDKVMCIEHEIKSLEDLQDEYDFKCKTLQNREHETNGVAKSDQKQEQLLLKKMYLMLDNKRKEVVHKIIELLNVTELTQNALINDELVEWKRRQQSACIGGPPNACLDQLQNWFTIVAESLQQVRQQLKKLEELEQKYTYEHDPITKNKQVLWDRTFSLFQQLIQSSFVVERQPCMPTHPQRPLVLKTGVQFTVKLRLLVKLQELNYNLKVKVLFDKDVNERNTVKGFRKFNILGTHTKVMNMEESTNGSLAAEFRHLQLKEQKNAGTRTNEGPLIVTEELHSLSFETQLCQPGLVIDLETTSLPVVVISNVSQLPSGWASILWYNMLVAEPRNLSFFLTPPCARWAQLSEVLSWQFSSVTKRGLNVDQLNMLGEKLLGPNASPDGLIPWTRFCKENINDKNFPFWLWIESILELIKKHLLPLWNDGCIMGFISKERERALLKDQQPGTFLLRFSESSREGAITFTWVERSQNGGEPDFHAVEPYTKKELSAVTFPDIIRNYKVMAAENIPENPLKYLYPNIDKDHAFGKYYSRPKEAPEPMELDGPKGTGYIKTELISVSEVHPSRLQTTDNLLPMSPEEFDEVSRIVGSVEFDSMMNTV

Target: T1, GST-GFP fused with the C-terminal peptide of ORF6 wild type (49-61 amino acids) (SARS-CoV-2) (UniProt P0DTC6)
T1 sequence: YSQLDEEQPMEID
Test: pull-down; lysates from HeLa cells stimulated with IFN-γ incubated with GST fusion proteins immobilised on GST-beads for 1 h; PY-STAT1 detected by western blot; only the target purified

Substance: endogenous PY-STAT1 in HeLa cells stimulated by IFN-γ (from UniProt P42224 1-750)
- binding: binds
